Some of the results follow.

The chains behind the UniProt entries cited, without tags or fusion partners.
UniProt Q0JBA9, entry or part of it: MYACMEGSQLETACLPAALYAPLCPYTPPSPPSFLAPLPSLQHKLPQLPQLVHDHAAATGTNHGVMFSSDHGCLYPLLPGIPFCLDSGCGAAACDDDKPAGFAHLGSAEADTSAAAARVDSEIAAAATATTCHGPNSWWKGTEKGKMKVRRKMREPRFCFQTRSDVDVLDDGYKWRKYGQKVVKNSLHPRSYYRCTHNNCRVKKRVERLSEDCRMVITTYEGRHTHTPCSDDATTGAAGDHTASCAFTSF

In this experiment the target is OsWRKY34 (Oryza sativa, UniProt Q0JBA9 1-250). Put plainly: protein-binding microarray (RPBM); PBS, 2% BSA, 51.3 ng/ul salmon testes DNA, 50 uM zinc acetate, 200 nM TF, 25 C, 1 h; high values mean tight binding. The conditions noted are these: protein: recombinant; tags: N-terminal polyhistidine and DsRed monomer fusion (pET32a); label: CyDye5-dUTP incorporated in the synthesized complementary strand; 3' TTTTT single-stranded linker to array surface; dsDNA, one strand shown. Put shortly:
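A custom Agilent array was converted to double-stranded form by primer extension with Cy5-dUTP and blocked with 2% BSA. Protein at 200 nM in PBS with 2% BSA, salmon testes DNA and 50 µM zinc acetate was applied for 1 h at 25 °C, followed by washing. The proteins were polyhistidine–DsRed N-terminal fusions of transcription factors, expressed in E. coli BL21-CodonPlus and Ni–NTA-purified. The binding signal is per-feature fluorescence intensity (arbitrary units) from an Axon 4000B scanner.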
On to “CCCGACAATCTCTCTCCCACCCCACCCCTTTCTCGTTTCGCGGAGTCACCTAGTGCAG”, for which the binding signal was 10300 fluorescence intensity (a.u.).
As to “TCAGCTAGCGAAATGTGAAATCGTAGCCGCTCGCGTTGACCGGAGTCACCTAGTGCAG”, the binding signal was 15900 fluorescence intensity (a.u.).
In the case of “TATTTCCAAAATCTCAATGCCACTCATTTTCATATTGGTTCGGAGTCACCTAGTGCAG”, the binding signal is 8050 fluorescence intensity (a.u.).
Under “ACTGATATGTGGGTCCCATGGGTTTTATTATTTTTTCGGACGGAGTCACCTAGTGCAG” stands 9400 fluorescence intensity (a.u.).
In the case of “CCACCGCCCCGCCATGGACACCTCGCGCCGCTCCGCACAACGGAGTCACCTAGTGCAG” it was 8590 fluorescence intensity (a.u.); in that of “TGGTGGGTGCGAGTTGGGAAAGGCGAGAGGGAGGGAGATGCGGAGTCACCTAGTGCAG”, 11700 fluorescence intensity (a.u.).
As for “CGGGAGTATATGTGATGTTGTTCTTTTTGTCATTTCAAGACGGAGTCACCTAGTGCAG”, the binding signal is 12700 fluorescence intensity (a.u.).
As to “TTTCAATGTAGAACTCTATTCATCCTTTCTCATGTGAAACCGGAGTCACCTAGTGCAG”, the binding signal was 8250 fluorescence intensity (a.u.).
Consider “TTTTCTAAGCTTCAGTTTTCTTGTTTTTCTATTTTGCTTTCGGAGTCACCTAGTGCAG”, for which the binding signal was 9430 fluorescence intensity (a.u.).
With “CAATTCGCACCAAACCGACCGCCACCGCCGCACCACCACCCGGAGTCACCTAGTGCAG”, the binding signal was 13700 fluorescence intensity (a.u.).
Under “ACCTTTTCCGGTTCATAATTGCCCGGCTAGCCGCCGGGAGCGGAGTCACCTAGTGCAG” stands 8580 fluorescence intensity (a.u.); under “CACCACCGTCTGCTATTGCCAAAGCCACCCTGTTGCACACCGGAGTCACCTAGTGCAG”, 8720 fluorescence intensity (a.u.); under “ATGCAGGCCTTAGTTTCCCTAGTTACCCTGGTGTTCCTGTCGGAGTCACCTAGTGCAG”, 8040 fluorescence intensity (a.u.).
“AATACCCTCACCTATACGCGCACTGTCATTTCTTCCTTGCCGGAGTCACCTAGTGCAG”: the binding signal was 10200 fluorescence intensity (a.u.).
Consider “CGTACTCGTCGATAGCATTTCTTGGATTTGGGTGTTTGTACGGAGTCACCTAGTGCAG”, for which the binding signal was 9270 fluorescence intensity (a.u.).
In the case of “TCTTTCATACGCTTGTTCCATCAAGTTAATCTGCTGCTTACGGAGTCACCTAGTGCAG” it was 8520 fluorescence intensity (a.u.); in that of “CTCGATCGCCCGCTACCCGCACGCCGCCTTTTCGTCCCGGCGGAGTCACCTAGTGCAG”, 13100 fluorescence intensity (a.u.); in that of “TCCTCCTCGCCGCCCGGCGAATCCCGCGCCTCCTCGCTTCCGGAGTCACCTAGTGCAG”, 9070 fluorescence intensity (a.u.).
Regarding “TTCGTTTCAAAATATTTGACACCGTTGACTTTTTAGCACACGGAGTCACCTAGTGCAG”, the binding signal was 25700 fluorescence intensity (a.u.).
In the case of “TGATACGTCGTCCTTATTTGAGTTAGTTTTTAAGTTTGTTCGGAGTCACCTAGTGCAG” it was 9860 fluorescence intensity (a.u.).
Take “TTCAGATTTTTGTTTCCAAGGGGTCCACTGCCAGTGAAAGCGGAGTCACCTAGTGCAG”: the binding signal was 8080 fluorescence intensity (a.u.).
On to “TTCCAGACCTCATCCCATTTTCTTCCGTACACGCTTTCACCGGAGTCACCTAGTGCAG”, for which the binding signal was 11800 fluorescence intensity (a.u.).
As to “TCTCGAATTTGCGTTAACCCTAGCTTCTGTTCTAGAAATCCGGAGTCACCTAGTGCAG”, the binding signal is 9390 fluorescence intensity (a.u.).
In the case of “TTTTCAGTTATGGGTTCACTAAAGTAGGGTCATGTATAGACGGAGTCACCTAGTGCAG” it was 9220 fluorescence intensity (a.u.); in that of “AGAATTCCGATCGCCACCCCGCGGTTCTGCTCTCGCCGGCCGGAGTCACCTAGTGCAG”, 9150 fluorescence intensity (a.u.); in that of “GGAGTTGGATTCGGCTTTCTGGGTTCTGTCTGTCGCTTGACGGAGTCACCTAGTGCAG”, 11000 fluorescence intensity (a.u.).
With “AATCCCCGAGCCGAACACTCGCTGGCGGGCGCGCGCGCGCCGGAGTCACCTAGTGCAG”, the binding signal was 8170 fluorescence intensity (a.u.).
In the case of “GCTGGTGCTGGTGCTGTTGCTGTTAGATCGAGGAGGATTCCGGAGTCACCTAGTGCAG” it was 11300 fluorescence intensity (a.u.); in that of “TTGGTGTGATTGTGTATAGTGGCGAGCATCCGTTTGACATCGGAGTCACCTAGTGCAG”, 8200 fluorescence intensity (a.u.); in that of “GATTTCAATCCTATAGGTAATTTTTCTTTGAGTCTATCTCCGGAGTCACCTAGTGCAG”, 8200 fluorescence intensity (a.u.).
Under “TTTCTTAGTCAAACTTCTTGAAAGTTTGACCAAGTGTATACGGAGTCACCTAGTGCAG” stands 10600 fluorescence intensity (a.u.); under “GCTTCGTTCGCCCATCGCTTGTTGCTCCTCCCAGACTCGCCGGAGTCACCTAGTGCAG”, 8470 fluorescence intensity (a.u.).
In the case of “TGTTCTTGTCTGTGATTGATAGCTGTATATGTCTCCCGGACGGAGTCACCTAGTGCAG” it was 12300 fluorescence intensity (a.u.); in that of “TATTTTGACATACTACACCTTAACATTTAATTTACATACTCGGAGTCACCTAGTGCAG”, 9200 fluorescence intensity (a.u.); in that of “CTATATACTTGTACTTGTTATGTTCGGTGAACTGGCCTCTCGGAGTCACCTAGTGCAG”, 8030 fluorescence intensity (a.u.).
In the case of “TTTGTTGCAACGGCGCATGTGGTGGGCGCGTGGTGGGGACCGGAGTCACCTAGTGCAG”, the binding signal was 8480 fluorescence intensity (a.u.).
Under “CGCATCCCTTCCACTGACTCCACTGCTTCTCACCCAACTCCGGAGTCACCTAGTGCAG” stands 10000 fluorescence intensity (a.u.).
In the case of “CTCGCGCTCTCTCTGTCTCTTCGGCGGCAGTGTATATATACGGAGTCACCTAGTGCAG” it was 8790 fluorescence intensity (a.u.); in that of “GTTATTTTCCTTTTTGTGTTTCATGCAAATATTTTAAACCCGGAGTCACCTAGTGCAG”, 8120 fluorescence intensity (a.u.); in that of “GCCCCACTTGCGTTGCCTCTTCCGGCCAACACACTGATCGCGGAGTCACCTAGTGCAG”, 10300 fluorescence intensity (a.u.).
In the case of “TAGATTTTTCTTTTCCATTTGTCTTCTATAATTACTTTTCCGGAGTCACCTAGTGCAG” it was 8480 fluorescence intensity (a.u.); in that of “TTATATTTCTTCGTTGATTTGTGAAGGTCAGTTTGAAGGGCGGAGTCACCTAGTGCAG”, 8630 fluorescence intensity (a.u.).
For “ATCTGGCATCTACCAACTTTTATACTAGTTTATTTCTCTACGGAGTCACCTAGTGCAG”, the binding signal is 10700 fluorescence intensity (a.u.).
Consider “CAGATTACGCTGCATTTTTTTTTGTTCTCTCGCCTCCCATCGGAGTCACCTAGTGCAG”, for which the binding signal was 8220 fluorescence intensity (a.u.).
Take “CCCGACCAATCCGCCGCCGCCACCGCTGCAACCAGCCGCCCGGAGTCACCTAGTGCAG”: the binding signal was 9060 fluorescence intensity (a.u.).
Consider “TCTTCGTATGCTATAGTGCTTCTGCTGCTGTGTTCCACTCCGGAGTCACCTAGTGCAG”, for which the binding signal is 8190 fluorescence intensity (a.u.).
As for “CTATATTCTGTTGCATCATTTTTTGGGTGCTCTTTGACTTCGGAGTCACCTAGTGCAG”, the binding signal was 10000 fluorescence intensity (a.u.).
For “GTATACCCAATGCAAATTAGCAGCTATATTTTACATGTTTCGGAGTCACCTAGTGCAG”, the binding signal is 8560 fluorescence intensity (a.u.).
Under “GATGTATGGGTGTTACATTATTTTTAGCTTTAAGTGCCACCGGAGTCACCTAGTGCAG” stands 8860 fluorescence intensity (a.u.).
Under “TTTGATAAGAACAGGCCCTGCTTTTTGTGCCCATACTGATCGGAGTCACCTAGTGCAG” stands 8120 fluorescence intensity (a.u.); under “CTCCCGGCCTCACCTTCTTCATCCACCACCACCAACGTCACGGAGTCACCTAGTGCAG”, 8400 fluorescence intensity (a.u.).
For the sequence “ATTTACCGGTTTTTCACTTGATTTCACGAAATTTCGAATTCGGAGTCACCTAGTGCAG”, the binding signal is 8750 fluorescence intensity (a.u.).
In the case of “TCATGGTGTAATTAGTGTCAATCATTGGTTTTTGCATGCGCGGAGTCACCTAGTGCAG” it was 8560 fluorescence intensity (a.u.); in that of “TATCCACGTCATCCGCGGCGGCCGCCCGCCGTTTTCCCTTCGGAGTCACCTAGTGCAG”, 8210 fluorescence intensity (a.u.).

These data come from publication PMC7819943, “Rice protein-binding microarrays: a tool to detect cis-acting elements near promoter regions in rice”.
